Data on 27 molecules can be found in the odorant receptor screen of Mainland et al. (2015).

What all share (test): odorant receptor activation (CRE luciferase / Renilla) (fold of no-odor wells); higher = more activation
Holding throughout (details): 100 µM

Experiment [1] concerns OR8S1 M48V/L82P/R128C/A198T clone 1279.
Experiment [2] deals with OR8U1 clone 1242.
The test system of experiment [3] is OR8U8 clone 1499.
Experiment [4] relates to OR8U9 clone 1439.
The test system of experiment [5] is OR9A2 clone 1080.
Experiment [6] has as its system OR9A4 clone 1081.
The subject of experiment [7] is OR9G1 clone 1111.
In experiment [8] the test system is OR9G4 N191D clone 1109.
Experiment [9] has as its system OR9G9 clone 1170.
Experiment [10] has as its system OR9I1 clone 1180.

Where “and” joins values, the source holds several entries; their conditions need not be identical. Equal entries are not always repeated. Some of the results follow. Each value is one well over the wells without odorant, computed here; the data are noisy.

On to `CC12C=CCC1C1CCC3CC(=O)CCC3(C)C1CC2` (stereo not given) [androstenone], for which the odorant receptor activation amounted to 0.935 in experiment [1]; 1.32 in experiment [2]; 1.19 in [3]; 0.823 in [4]; 5.12 in experiment [5]; 1.59 in [6]. Further, the odorant receptor activation in experiment [7] worked out at 20.8; in experiment [8] it was 2.8; in experiment [9], 5.63; in experiment [10] it was 6.31.

Turning to `CCCCCCCCCC=O` [decyl aldehyde], the odorant receptor activation in experiment [1] amounted to 1.35; in experiment [2], 1.69; in experiment [3], 1.07; in experiment [4] it was 1.59; in experiment [5], 1.18; in [6] it was 1.12. The odorant receptor activation in experiment [7] is 1.26; in experiment [8], 1.16; in experiment [9], 1.14; in [10] it was 1.06.

In the case of `O=C1CCCCCCCCCCCC(=O)OCCO1` [ethylene brassylate], the odorant receptor activation in experiment [1] was determined as 1.46; in experiment [2], 1.41; in [3] it was 1.19; in experiment [4], 1.49; in experiment [5] it was 1.83; in [6], 1.38. Moreover, the odorant receptor activation in experiment [7] was 1.62; in [8], 1.36; in experiment [9], 2.26; in experiment [10], 1.46.

On to `C=C(C)C1CC=C(C)C(=O)C1` (stereo not given) [r-carvone], for which the odorant receptor activation in [1] amounted to 0.831; in experiment [2], 0.938; in experiment [3], 0.795; in experiment [4], 1.28; in experiment [5], 1.01; in experiment [6] it was 1.17. Further, the odorant receptor activation amounted to 0.66 in experiment [7], 0.984 in [8], 1.04 in [9] and 0.862 in experiment [10].

On to `CCC1(O)C2(C)CCC(C2)C1(C)C` (stereo not given) [2-ethylfenchol], for which the odorant receptor activation in [1] was 0.701; in [2], 1.27; in experiment [3] it was 1.11; in experiment [4], 0.549; in [5] it was 9.34; in [6], 3.79. Also, the odorant receptor activation was determined as 29.5 in experiment [7], 4.28 in [8], 1.56 in experiment [9] and 1.08 in experiment [10].

In the case of `c1cnccn1` [pyrazine], the odorant receptor activation was found to be 0.815 in experiment [1]; 0.894 in experiment [2]; 0.648 in experiment [3]; 1.15 in [4]; 0.895 in [5]; 1.06 in experiment [6]. Also, the odorant receptor activation in experiment [7] stood at 0.951; in experiment [8], 1.06; in [9], 1.08; in experiment [10], 0.973.

For `CCCCO` [1-butanol], the odorant receptor activation in experiment [1] stood at 1.05; in experiment [2] it was 1.12; in experiment [3] it was 1.47; in experiment [4], 0.568; in [5], 7.89; in [6], 3.25. Moreover, the odorant receptor activation in [7] is 23.5; in experiment [8] it was 4.56; in experiment [9], 1.17; in [10], 1.4.

`CC(C)=CCCC(C)=CC=O` [citral]: the odorant receptor activation in [1] amounted to 0.998; in experiment [2] it was 1.25; in experiment [3], 1.09; in experiment [4], 0.155; in experiment [5], 1.03; in experiment [6], 0.924. In addition, the odorant receptor activation in [7] was 1.46; in experiment [8], 1.19; in [9] it was 1.09; in [10] it was 1.21.

For `CC(C)C=O` [isobutyraldehyde], the odorant receptor activation was 0.971 and 1.08 in experiment [1]; 1.18 and 1.36 in experiment [2]; 0.527 and 1.58 in [3]; 0.842 in [4]; 0.652 in experiment [5]; 8.35 in experiment [6]. For the same molecule, the odorant receptor activation in experiment [7] amounted to 1.77; in [8], 0.387; in experiment [9], 1.22; in experiment [10], 1.04.

For the molecule `CC(C)C(=O)O` [isobutyric acid], the odorant receptor activation is 0.84 and 0.909 in experiment [1]; 1.61 and 1.51 in [2]; 0.659 and 1.18 in [3]; 0.759 in [4]; 0.551 in experiment [5]; 1.16 in experiment [6]. Further, the odorant receptor activation in experiment [7] turned out to be 1.84; in experiment [8] it was 0.49; in experiment [9] it was 1.06; in experiment [10], 0.845.

Turning to `CC(=O)OC1CC2CCC1(C)C2(C)C` (stereo not given) [isobornyl acetate], the odorant receptor activation in [1] is 0.891 and 1.03; in experiment [2] it was 1.11 and 1.08; in [3] it was 0.53 and 1.34; in [4], 0.87; in experiment [5], 0.492; in experiment [6] it was 6.41. Moreover, the odorant receptor activation is 0.809 in experiment [7], 0.675 in experiment [8], 0.903 in experiment [9] and 0.981 in experiment [10].

`CC(=O)c1ccccc1` [acetophenone]: the odorant receptor activation is 0.747 in experiment [1]; 0.814 in [2]; 1.19 and 0.896 in [3]; 1.12 in experiment [4]; 0.499 in experiment [5]; 1.09 in experiment [6]. Further, the odorant receptor activation in experiment [7] turned out to be 1.33; in experiment [8], 0.868; in [9], 0.891; in experiment [10], 1.33.

`CC12CCC(C1)C(C)(C)C2=O` (stereo not given) [fenchone]: the odorant receptor activation in experiment [1] stood at 1.16; in experiment [2], 1.07; in [3] it was 1.15; in experiment [4] it was 0.967; in experiment [5], 1.21; in [6] it was 1.12. Besides, the odorant receptor activation stood at 1.23 in [7], 1.18 in experiment [8], 1.13 in experiment [9] and 0.971 in experiment [10].

Consider `C=CCc1ccc(OC)c(OC)c1` [eugenol methyl ether], for which the odorant receptor activation in experiment [1] amounted to 1.85; in experiment [2] it was 1.68; in experiment [3] it was 1.14; in [4] it was 1.41; in experiment [5], 1.78; in experiment [6], 1.38. Besides, the odorant receptor activation was 1.56 in experiment [7], 1.45 in experiment [8], 1.56 in experiment [9] and 1.46 in [10].

With `O=C1CCCCCCCCCCCCCCO1` [pentadecalactone], the odorant receptor activation in experiment [1] was 0.88; in [2] it was 0.789; in [3], 0.725; in experiment [4] it was 1.24; in experiment [5], 0.831; in experiment [6], 0.88. The odorant receptor activation in experiment [7] was determined as 0.731; in [8], 1.06; in experiment [9] it was 0.807; in experiment [10] it was 0.807.

For the molecule `CC(=O)OC(C)(C)C1CC=C(C)CC1` (stereo not given) [terpinyl acetate], the odorant receptor activation in experiment [1] is 0.896; in [2], 0.856; in [3], 0.696; in experiment [4], 0.804; in experiment [5], 1.29; in [6] it was 1.69. Further, the odorant receptor activation in experiment [7] came out at 1.39; in [8] it was 1.27; in experiment [9], 1.52; in experiment [10], 1.24.

`c1ccc(Oc2ccccc2)cc1` [diphenyl ether]: the odorant receptor activation in experiment [1] stood at 1.03; in experiment [2], 1.16; in experiment [3] it was 1.21; in [4] it was 0.954; in [5] it was 0.901; in experiment [6], 0.934. The odorant receptor activation came to 1.2 in experiment [7], 0.959 in experiment [8], 1.04 in experiment [9] and 0.937 in experiment [10].

Take `CCCCCCCC=CC=O` [2-decenal]: the odorant receptor activation was found to be 1.57 in experiment [1]; 1.52 in experiment [2]; 1.89 in experiment [3]; 1.58 in [4]; 10.3 in experiment [5]; 6.62 in experiment [6]. Further, the odorant receptor activation in [7] came to 50.9; in experiment [8], 6.48; in experiment [9], 0.833; in experiment [10] it was 1.63.

On to `CCCCCC(C)=O` [2-heptanone], for which the odorant receptor activation in experiment [1] was 4.83; in [2], 0.528; in experiment [3], 1.08 and 0.735; in experiment [4] it was 1.13; in experiment [5], 0.513; in experiment [6], 0.718. In addition, the odorant receptor activation in [7] worked out at 1.32; in experiment [8], 0.643; in [9], 1.06; in experiment [10], 1.23.

As for `CC12CCC(CC1)C(C)(C)O2` [cineole], the odorant receptor activation in experiment [1] is 0.945; in [2], 1.23; in experiment [3], 0.982; in [4] it was 0.117; in experiment [5], 0.704; in experiment [6] it was 0.633. In addition, the odorant receptor activation in experiment [7] was 1.07; in [8], 0.816; in experiment [9], 0.746; in [10], 0.732.

Take `O=C1CCCCC1` [Cyclohexanone]: the odorant receptor activation in experiment [1] is 0.369; in experiment [2], 0.229; in experiment [3] it was 0.89 and 0.912; in [4], 0.778; in experiment [5], 1.16; in experiment [6], 1.41. Further, the odorant receptor activation in [7] came to 2.37; in experiment [8], 1.75; in experiment [9] it was 0.518; in [10] it was 0.585.

Turning to `CC12C=CCC1C1CCC3=CC(=O)CCC3(C)C1CC2` (stereo not given) [androstadienone], the odorant receptor activation is 0.914 and 1.02 in experiment [1]; 1.55 and 1.59 in experiment [2]; 0.568 and 1.52 in experiment [3]; 1.02 in [4]; 0.655 in experiment [5]; 2.39 in experiment [6]. Also, the odorant receptor activation was 2.19 in experiment [7], 0.936 in [8], 0.867 in experiment [9] and 0.793 in [10].

Consider `COc1cc(C)ccc1O` [2-methoxy-4-methylphenol], for which the odorant receptor activation in [1] is 0.633; in [2] it was 1.05; in [3], 0.81; in [4] it was 0.875; in experiment [5], 4.83; in experiment [6], 2.09. In addition, the odorant receptor activation in [7] came out at 18.5; in experiment [8], 2.58; in [9] it was 1.32; in [10], 1.6.

`CC1CCC(C(C)C)C(O)C1` (single isomer, unassigned; (+)) [(+)-menthol]: the odorant receptor activation is 0.669 in experiment [1]; 1.04 in experiment [2]; 1.19 in [3]; 0.478 in [4]; 7.03 in experiment [5]; 4.23 in experiment [6]. The odorant receptor activation in experiment [7] was found to be 34.2; in [8], 7.04; in [9], 1.3; in experiment [10], 1.27.

As for `CC1=CCC(C(C)(C)O)CC1` (stereo not given) [terpineol], the odorant receptor activation in experiment [1] turned out to be 0.827; in experiment [2] it was 1.05; in [3], 0.599; in experiment [4] it was 0.893; in experiment [5], 1.01; in experiment [6], 1.04. Further, the odorant receptor activation in experiment [7] amounted to 1.15; in experiment [8] it was 1.22; in experiment [9], 0.993; in experiment [10] it was 0.966.

On to `CCCCCCCCOC(C)=O` [octyl acetate], for which the odorant receptor activation in experiment [1] amounted to 1.23; in experiment [2], 1.36; in experiment [3], 1.05; in experiment [4], 1.1; in experiment [5], 1.19; in experiment [6], 0.999. Moreover, the odorant receptor activation in experiment [7] amounted to 1.04; in [8], 1.4; in [9] it was 1.07; in experiment [10], 0.785.

As for `COC(=O)c1ccccc1O` [methyl salicylate], the odorant receptor activation in experiment [1] was 1.04; in experiment [2] it was 0.924; in experiment [3] it was 1.06; in [4] it was 1.44; in experiment [5], 1.09; in experiment [6] it was 0.905. The odorant receptor activation in [7] turned out to be 0.917; in [8] it was 1.02; in [9], 0.903; in experiment [10], 0.766.
